Assay results reported in the supplement of paper PMC9694430.
The list shows a part of the results, in another mix than the full data.

Chains of the proteins cited; added tags and fusions are not shown. Chains listed by the source or under a name are the forms on record and can include a tag or linker.
LOC_OS06G16330-cb003, as listed by the source: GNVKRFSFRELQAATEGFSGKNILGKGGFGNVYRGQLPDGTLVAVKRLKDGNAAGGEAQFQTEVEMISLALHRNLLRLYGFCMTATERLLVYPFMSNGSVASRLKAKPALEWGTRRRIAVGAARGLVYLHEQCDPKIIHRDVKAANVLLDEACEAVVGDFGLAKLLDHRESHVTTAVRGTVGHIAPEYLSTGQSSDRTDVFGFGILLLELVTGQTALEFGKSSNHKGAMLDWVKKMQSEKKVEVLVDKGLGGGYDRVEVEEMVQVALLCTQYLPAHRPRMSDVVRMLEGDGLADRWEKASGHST

Legend:
Test in all cases: thermal shift delta Tm vs DMSO control; higher = stronger stabilization (binding)
Conditions in all cases: 12.5 µM; protein concentration 2 µM
LOC_OS01G52050-cb004 = tested on: T1, LOC_OS01G52050-cb004
T1 sequence (whole entry): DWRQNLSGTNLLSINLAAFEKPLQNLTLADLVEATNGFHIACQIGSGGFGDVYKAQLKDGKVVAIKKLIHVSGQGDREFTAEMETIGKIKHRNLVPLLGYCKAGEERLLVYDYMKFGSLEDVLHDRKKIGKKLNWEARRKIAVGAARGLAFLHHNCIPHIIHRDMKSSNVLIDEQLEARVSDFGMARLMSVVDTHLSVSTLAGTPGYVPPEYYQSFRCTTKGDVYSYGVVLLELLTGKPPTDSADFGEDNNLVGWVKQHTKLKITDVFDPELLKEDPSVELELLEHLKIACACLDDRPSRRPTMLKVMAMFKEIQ
How it was run: (§1)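 Thermal shift values come from differential scanning fluorimetry on purified rice kinase domains made in E. coli, with melting temperatures obtained from Boltzmann fits. Samples of 19.5 μl held 2 μM kinase, 100 mM potassium phosphate pH 7.5, 150 mM NaCl, 10% glycerol, 5 × SYPRO Orange and compound in DMSO, and were heated from 25°C to 95°C at 0.05°C/s. Each shift is a triplicate mean relative to the DMSO-only protein sample.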

LOC_OS01G70970-cb002 = tested on: LOC_OS01G70970-cb002
How it was run: as §1

LOC_OS04G38480-cb003 = tested on: T2, LOC_OS04G38480-cb003
T2 sequence (whole entry): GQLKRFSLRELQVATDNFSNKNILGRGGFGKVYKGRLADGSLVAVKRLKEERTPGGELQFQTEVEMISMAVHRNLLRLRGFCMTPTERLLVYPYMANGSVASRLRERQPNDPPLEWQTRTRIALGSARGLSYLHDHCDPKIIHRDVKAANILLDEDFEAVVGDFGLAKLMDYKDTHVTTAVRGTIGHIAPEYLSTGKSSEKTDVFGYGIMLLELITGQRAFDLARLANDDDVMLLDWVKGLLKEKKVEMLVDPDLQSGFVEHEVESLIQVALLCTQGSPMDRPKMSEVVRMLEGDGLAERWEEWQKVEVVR
How it was run: as §1

LOC_OS04G41100-cb001 = tested on: T3, LOC_OS04G41100-cb001
T3 sequence (whole entry): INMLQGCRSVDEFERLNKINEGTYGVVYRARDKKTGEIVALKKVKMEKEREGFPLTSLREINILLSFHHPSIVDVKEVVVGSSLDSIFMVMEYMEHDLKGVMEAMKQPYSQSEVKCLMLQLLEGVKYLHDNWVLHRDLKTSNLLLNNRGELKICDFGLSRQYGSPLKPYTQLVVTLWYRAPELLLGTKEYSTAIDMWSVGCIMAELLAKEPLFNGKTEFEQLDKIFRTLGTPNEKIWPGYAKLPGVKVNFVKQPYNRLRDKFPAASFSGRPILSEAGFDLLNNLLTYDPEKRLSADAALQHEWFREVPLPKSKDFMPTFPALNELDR
How it was run: as §1

LOC_OS05G43570-cb004 = tested on: LOC_OS05G43570-cb004
How it was run: as §1

LOC_OS06G16330-cb003 = tested on: LOC_OS06G16330-cb003
How it was run: as §1

LOC_OS06G22820-cb001 = tested on: T4, LOC_OS06G22820-cb001
T4 sequence (whole entry): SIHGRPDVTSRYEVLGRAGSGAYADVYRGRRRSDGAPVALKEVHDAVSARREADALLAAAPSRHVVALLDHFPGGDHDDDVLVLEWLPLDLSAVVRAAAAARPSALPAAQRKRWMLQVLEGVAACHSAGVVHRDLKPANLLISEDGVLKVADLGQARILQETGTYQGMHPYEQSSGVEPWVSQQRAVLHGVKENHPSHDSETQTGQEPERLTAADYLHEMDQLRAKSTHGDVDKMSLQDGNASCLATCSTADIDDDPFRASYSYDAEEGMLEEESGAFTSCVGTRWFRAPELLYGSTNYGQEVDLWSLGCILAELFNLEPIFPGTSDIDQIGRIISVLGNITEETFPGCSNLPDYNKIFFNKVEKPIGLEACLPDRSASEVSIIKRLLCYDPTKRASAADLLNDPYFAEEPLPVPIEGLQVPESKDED
How it was run: as §1

LOC_OS03G27990-cb004 = tested on: LOC_OS03G27990-cb004
How it was run: as §1

LOC_OS04G57630-cb004 = tested on: LOC_OS04G57630-cb004
How it was run: as §1

LOC_OS07G06570-cb004 = tested on: LOC_OS07G06570-cb004
How it was run: as §1
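Further: purified Escherichia coli-expressed rice kinase domain construct.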

| Structure (SMILES) | thermal shift delta Tm (LOC_OS01G52050-cb004) | thermal shift delta Tm (LOC_OS01G70970-cb002) | thermal shift delta Tm (LOC_OS04G38480-cb003) | thermal shift delta Tm (LOC_OS04G41100-cb001) | thermal shift delta Tm (LOC_OS05G43570-cb004) | thermal shift delta Tm (LOC_OS06G16330-cb003) | thermal shift delta Tm (LOC_OS06G22820-cb001) | thermal shift delta Tm (LOC_OS03G27990-cb004) | thermal shift delta Tm (LOC_OS04G57630-cb004) | thermal shift delta Tm (LOC_OS07G06570-cb004) |
| --- | --- | --- | --- | --- | --- | --- | --- | --- | --- | --- |
| Cc1nc2c(-c3cnc(N)nc3)nc(N3CCOCC3)nc2n1C(C)C | 0.19 °C | 0.55 °C | 1.12 °C | 0.63 °C | 0.55 °C | 0.55 °C | 1.16 °C | – | – | – |
| Cc1ccccc1-n1c(Cn2nc(-c3cccc(O)c3)c3c(N)ncnc32)nc2cccc(C)c2c1=O | 0.22 °C | – | 0.29 °C | 0.51 °C | – | -0.46 °C | 0.61 °C | -0.29 °C | 0.22 °C | 0.61 °C |
